Assay results from the supplement of paper PMC8728848.
The list shows a part of the results.

Experiments:
Assay in all cases: glycan array binding signal (z-score within array); higher = stronger binding
Conditions in all cases: glycan notation: IUPAC condensed, linker removed
[1] = biological target: Fuc(a1-2)Gal(b1-4)[Fuc(a1-3)]GlcNAc(b1-2)Man(a1-3)[Fuc(a1-2)Gal(b1-4)[Fuc(a1-3)]GlcNAc(b1-2)Man(a1-6)]Man(b1-4)GlcNAc(b1-4)[Fuc(a1-6)]GlcNAc
How it was run: (§1)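 Glycan array data were curated from 3228 arrays in the Consortium for Functional Glycomics database and kept only where the protein sequence was available. Glycan names were converted to IUPAC-condensed notation, and columns mapping to the same glycan were averaged. The binding signal is a within-array Z-score, averaged across arrays of the same protein sequence at different concentrations or buffers and across linkers. Negative Z-scores can be read as non-binding.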

[2] = biological target: Fuc(a1-2)Gal(b1-4)[Fuc(a1-3)]GlcNAc(b1-2)[Fuc(a1-2)Gal(b1-4)[Fuc(a1-3)]GlcNAc(b1-4)]Man(a1-3)[Fuc(a1-2)Gal(b1-4)[Fuc(a1-3)]GlcNAc(b1-2)Man(a1-6)]Man(b1-4)GlcNAc(b1-4)GlcNAc
How it was run: as §1

[3] = biological target: Fuc(a1-2)Gal(b1-4)[Fuc(a1-3)]GlcNAc(b1-3)Gal(b1-4)[Fuc(a1-3)]GlcNAc
How it was run: as §1

[4] = biological target: Fuc(a1-2)Gal(b1-4)[Fuc(a1-3)]GlcNAc(b1-3)Gal(b1-4)[Fuc(a1-3)]GlcNAc(b1-3)Gal(b1-4)[Fuc(a1-3)]GlcNAc
How it was run: as §1

[5] = biological target: Fuc(a1-2)Gal(b1-4)[Fuc(a1-3)]GlcNAc(b1-3)GalNAc
How it was run: as §1

[6] = biological target: Fuc(a1-2)Gal(b1-4)[Fuc(a1-3)]GlcNAc(b1-3)[Neu5Ac(a2-6)Gal(b1-4)GlcNAc(b1-6)]Gal(b1-4)Glc
How it was run: as §1

[7] = biological target: Fuc(a1-2)Gal3S(b1-4)GlcNAc
How it was run: as §1

[8] = biological target: Fuc(a1-2)Gal6S(b1-3)GlcNAc
How it was run: as §1

[9] = biological target: Fuc(a1-2)Gal6S(b1-3)GlcNAc6S
How it was run: as §1

[10] = biological target: Fuc(a1-2)Gal6S(b1-4)Glc
How it was run: as §1

[11] = biological target: Fuc(a1-2)Gal6S(b1-4)Glc6S
How it was run: as §1

[12] = biological target: Fuc(a1-2)[Gal(a1-3)]Gal
How it was run: as §1

[13] = biological target: Fuc(a1-2)[Gal(a1-3)]Gal(b1-3)GalNAc
How it was run: as §1

[14] = biological target: Fuc(a1-2)[Gal(a1-3)]Gal(b1-3)GalNAc(b1-3)Gal(a1-4)Gal(b1-4)Glc
How it was run: as §1

[15] = biological target: Fuc(a1-2)[Gal(a1-3)]Gal(b1-3)GlcNAc
How it was run: as §1

[16] = biological target: Fuc(a1-2)[Gal(a1-3)]Gal(b1-3)GlcNAc(b1-2)Man(a1-3)[Fuc(a1-2)[Gal(a1-3)]Gal(b1-3)GlcNAc(b1-2)Man(a1-6)]Man(b1-4)GlcNAc(b1-4)GlcNAc
How it was run: as §1

[17] = biological target: Fuc(a1-2)[Gal(a1-3)]Gal(b1-3)GlcNAc(b1-2)Man(a1-3)[Fuc(a1-2)[Gal(a1-3)]Gal(b1-3)GlcNAc(b1-2)Man(a1-6)]Man(b1-4)GlcNAc(b1-4)[Fuc(a1-6)]GlcNAc
How it was run: as §1

[18] = biological target: Fuc(a1-2)[Gal(a1-3)]Gal(b1-3)GlcNAc(b1-3)GalNAc
How it was run: as §1

[19] = biological target: Fuc(a1-2)[Gal(a1-3)]Gal(b1-3)GlcNAc(b1-6)GalNAc
How it was run: as §1

[20] = biological target: Fuc(a1-2)[Gal(a1-3)]Gal(b1-4)Glc
How it was run: as §1

[21] = biological target: Fuc(a1-2)[Gal(a1-3)]Gal(b1-4)GlcNAc
How it was run: as §1

[22] = biological target: Fuc(a1-2)[Gal(a1-3)]Gal(b1-4)GlcNAc(b1-2)Man
How it was run: as §1

[23] = biological target: Fuc(a1-2)[Gal(a1-3)]Gal(b1-4)GlcNAc(b1-2)Man(a1-3)[Fuc(a1-2)[Gal(a1-3)]Gal(b1-4)GlcNAc(b1-2)Man(a1-6)]Man(b1-4)GlcNAc(b1-4)GlcNAc
How it was run: as §1

[24] = biological target: Fuc(a1-2)[Gal(a1-3)]Gal(b1-4)GlcNAc(b1-2)Man(a1-3)[Fuc(a1-2)[Gal(a1-3)]Gal(b1-4)GlcNAc(b1-2)Man(a1-6)]Man(b1-4)GlcNAc(b1-4)[Fuc(a1-6)]GlcNAc
How it was run: as §1

[25] = biological target: Fuc(a1-2)[Gal(a1-3)]Gal(b1-4)GlcNAc(b1-3)GalNAc
How it was run: as §1

[26] = biological target: Fuc(a1-2)[Gal(a1-3)]Gal(b1-4)GlcNAc(b1-3)[Fuc(a1-2)[Gal(a1-3)]Gal(b1-4)GlcNAc(b1-6)]GalNAc
How it was run: as §1

[27] = biological target: Fuc(a1-2)[Gal(a1-3)]Gal(b1-4)GlcNAc(b1-6)GalNAc
How it was run: as §1

[28] = biological target: Fuc(a1-2)[Gal(a1-3)]Gal(b1-4)[Fuc(a1-3)]Glc
How it was run: as §1

[29] = biological target: Fuc(a1-2)[Gal(a1-3)]Gal(b1-4)[Fuc(a1-3)]GlcNAc
How it was run: as §1

[30] = biological target: Fuc(a1-2)[Gal(a1-3)]Gal(b1-4)[Fuc(a1-3)]GlcNAc(b1-3)GalNAc
How it was run: as §1

[31] = biological target: Fuc(a1-2)[Gal(a1-4)]Gal(b1-4)GlcNAc
How it was run: as §1

[32] = biological target: Fuc(a1-2)[GalNAc(a1-3)]Gal
How it was run: as §1

[33] = biological target: Fuc(a1-2)[GalNAc(a1-3)]Gal(b1-3)GalNAc(a1-3)[Fuc(a1-2)]Gal(b1-4)GlcNAc
How it was run: as §1

[34] = biological target: Fuc(a1-2)[GalNAc(a1-3)]Gal(b1-3)GalNAc(b1-3)Gal(a1-4)Gal(b1-4)Glc
How it was run: as §1

[35] = biological target: Fuc(a1-2)[GalNAc(a1-3)]Gal(b1-3)GlcNAc
How it was run: as §1

[36] = biological target: Fuc(a1-2)[GalNAc(a1-3)]Gal(b1-3)GlcNAc(b1-2)Man(a1-3)[Fuc(a1-2)[GalNAc(a1-3)]Gal(b1-3)GlcNAc(b1-2)Man(a1-6)]Man(b1-4)GlcNAc(b1-4)GlcNAc
How it was run: as §1

[37] = biological target: Fuc(a1-2)[GalNAc(a1-3)]Gal(b1-3)GlcNAc(b1-2)Man(a1-3)[Fuc(a1-2)[GalNAc(a1-3)]Gal(b1-3)GlcNAc(b1-2)Man(a1-6)]Man(b1-4)GlcNAc(b1-4)[Fuc(a1-6)]GlcNAc
How it was run: as §1

[38] = biological target: Fuc(a1-2)[GalNAc(a1-3)]Gal(b1-3)GlcNAc(b1-3)GalNAc
How it was run: as §1

B1: GS7807Q-bfa-507-19-507 (Bacteroides fragilis) (protein)
chain: ASCNKFDDLNTNPDAATKVTAPMLATKLILNITQQGSAKNFVYHSMLSKQIAWSENASDEQYNLFGRTDFDGYTILTNCQKMVDAANEGDKDSYAALAKFMKAYKLFYKSLEVGDIPYSDALKGEEGVQKPKYDTQKEVMRQVLEDLEEAYTLFSSGSDFDGDPIFGGDTENWKKTVVAFELKVLTHLCKKDTDADLKVKERFARLVSSGSLMTSNADNFQLVYSNKAGQLYPFYYTQNKHSDYLMMSSVIIDNLKKFNDYRMFYYASPAKAQTDKGIKDSEWDAYLSIDPSDSYSNISVLYGKGEFCLANLRYTRVPEGEPLMRLSYAEQNFILAEGAVRGWISEDASTYYKKGIEASMNFIADNTPDKEEYTHGRTITQEYIQEYLAQPVIQLSGDKEKDLEMILLQRYLASFLQHPYDAYYDYRRTGYPVLPINPSTNLNTEKNKIPTRWMYPEAEFSYNPDNANEAVQRQYNGSDDVNKLMWILQ
- glycan array binding signal (z-score) [1]: 0.717
- glycan array binding signal (z-score) [2]: 0.484
- glycan array binding signal (z-score) [3]: -0.936
- glycan array binding signal (z-score) [4]: -0.232
- glycan array binding signal (z-score) [5]: 1.5
- glycan array binding signal (z-score) [6]: 0.368
- glycan array binding signal (z-score) [7]: -0.3
- glycan array binding signal (z-score) [8]: -0.23
- glycan array binding signal (z-score) [9]: 1.53
- glycan array binding signal (z-score) [10]: 0.351
- glycan array binding signal (z-score) [11]: 0.919
- glycan array binding signal (z-score) [12]: -0.796
- glycan array binding signal (z-score) [13]: -0.033
- glycan array binding signal (z-score) [14]: 0.019
- glycan array binding signal (z-score) [15]: 0.16
- glycan array binding signal (z-score) [16]: -0.449
- glycan array binding signal (z-score) [17]: 1.31
- glycan array binding signal (z-score) [18]: -0.929
- glycan array binding signal (z-score) [19]: -1.04
- glycan array binding signal (z-score) [20]: 0.208
- glycan array binding signal (z-score) [21]: -0.556
- glycan array binding signal (z-score) [22]: -0.226
- glycan array binding signal (z-score) [23]: 1.09
- glycan array binding signal (z-score) [24]: 0.949
- glycan array binding signal (z-score) [25]: -1.24
- glycan array binding signal (z-score) [26]: -0.376
- glycan array binding signal (z-score) [27]: -0.854
- glycan array binding signal (z-score) [28]: 1.42
- glycan array binding signal (z-score) [29]: -0.893
- glycan array binding signal (z-score) [30]: 0.188
- glycan array binding signal (z-score) [31]: 0.068
- glycan array binding signal (z-score) [32]: -0.197
- glycan array binding signal (z-score) [33]: 0.46
- glycan array binding signal (z-score) [34]: 0.231
- glycan array binding signal (z-score) [35]: 0.29
- glycan array binding signal (z-score) [36]: -0.552
- glycan array binding signal (z-score) [37]: -0.523
- glycan array binding signal (z-score) [38]: 0.376
